According to PubChem BioAssay AID1347075 (National Center for Advancing Translational Sciences (NCATS), 2019):
Among all 400,000 compounds or so, about 5,500 (1.4%) were called active. Inconclusive results, whose numbers are uncertain, are shown with a selection of clear calls. Calls come from the whole dose curve; as a rule, active = well fitted cell-killing curve with a large enough effect; inconclusive = small, poorly fitted or top-dose-only effect, or effect the other way; inactive = flat fitted curve, though single readings scatter. A potency beside an inconclusive call is a rough fit, not a confirmed value.

experiment: qHTS assay for MDR1-selective chemotherapeutics: Primary screen using the parental adenocarcinoma cell KB-3-1; conditions: KB-3-1 viability, CellTiter-Glo ATP luminescence, 72 h; activity change, negative = cytotoxic: at 46.1 µM (top of the series); note: nearly all actives have a fitted effect of over 60% in size
How it was run: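 Parental KB-3-1 adenocarcinoma cells in phenol-red-free DMEM with 10% FBS were pin-treated with compounds at several concentrations, incubated 72 h at 37 °C, and viability read by CellTiter-Glo luminescence; concentration-effect curves were fitted after normalization.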
% is set by controls: 0 for no effect and ±100 for the full control effect; potency is the fitted concentration of half-maximal effect.

| Compound | Potency | activity change, negative = cytotoxic |
| --- | --- | --- |
| COc1ccc2c(c1)c(C(=O)CN1CCC3(CC1)OCCO3)c(C)n2Cc1ccccc1 | inconclusive: 18.4 µM [cytotoxic, single point] |  |
| COc1ccc(CCNCc2cccn2C)cc1OC |  | inactive: 0.43% |
| COc1ccc(-c2nc(CN3C(=O)CN=C(c4ccccc4)c4ccccc43)c(C)o2)cc1 | active: 14.6 µM |  |
| CCOC(C[n+]1c(-c2ccccc2)cc(C)cc1-c1ccccc1)OCC | inconclusive: 18.4 µM [cytotoxic, single point] |  |
| CCC(=NCCOc1ccc(Cl)cc1)c1c(O)n(C)c(=O)n(C)c1=O | inconclusive: 18.4 µM [cytotoxic, single point] |  |
| COc1ccc(NC(=O)CN(C)C(=O)CSC(c2ccccc2)c2ccccc2)cc1 | inconclusive: 29.1 µM [cytotoxic, single point] |  |
| Cc1cc(C)cc(N2C(=O)NC(=O)/C(=C\c3cccn3-c3ccccc3)C2=O)c1 | inconclusive: 29.1 µM [cytotoxic, single point] |  |
| Cc1ccccc1N1C(=O)NC(=O)/C(=C\c2cnn(-c3ccccc3)c2)C1=O |  | inactive: -4.33% |
| CC1CC2CC(=O)CCC2(C)C2CCC3(C)C(O)CCC3C12 (stereo not drawn) | inconclusive: 23.1 µM [cytotoxic, single point] |  |
| Cc1ccc(S(=O)(=O)N2CCCCC2)cc1NC(=O)CN1CC=C(c2ccccc2)CC1 | inconclusive: 23.1 µM [cytotoxic, partial curve] |  |
| O=S(=O)(F)c1ccc2nc(-c3cccc(Sc4ccccc4)c3)cc(Cl)c2c1 | inconclusive: 20.6 µM [rising, single point] |  |
| CCOC(=O)[C@]12Cc3cc(Cl)ccc3[C@H]1N(Cc1ccccc1)C(=O)c1cc(OC)ccc12 | active: 2.59 µM |  |
| Nc1ccccc1-[n+]1c(-c2ccccc2)cc(-c2ccccc2)cc1-c1ccccc1 | inconclusive: 23.1 µM [cytotoxic, single point] |  |
| CC/C(=N\Nc1ccccc1)c1c(O)n(C)c(=O)n(C)c1=O | inconclusive: 23.1 µM [cytotoxic, single point] |  |
| COC(=O)C1=C(c2cccc(OCc3ccccc3)c2)C[C@@H]2CC[C@H]1N2C(=O)NCc1cccc(OC)c1 | inconclusive: 20.6 µM [cytotoxic, single point] |  |
| CC(C)CCCn1c(O)c(/C=C2/C=CC=N2)c(=O)[nH]c1=O | active: 16.4 µM |  |
| O=C1NC(=S)NC(=O)C1=Cc1cccc2cc3ccccc3cc12 | inconclusive: 16.4 µM [cytotoxic, single point] |  |
| Cc1ccc(N2C(=O)NC(=O)/C(=C\C=C\c3ccco3)C2=O)cc1C | inconclusive: 29.1 µM [cytotoxic, single point] |  |
| Cc1ccc(OP(=O)(NCc2ccccc2)Oc2ccc(C)cc2)cc1 | inconclusive: 18.4 µM [cytotoxic, partial curve, poor fit] |  |
| CC1(C)C[C@H]2C=C(C=O)[C@]3(C=O)C[C@]3(C)[C@H]2C1 | inconclusive: 29.1 µM [cytotoxic, single point] |  |
| O=C1NCN(c2ccccc2)C12CCN(C(c1cccc3ccccc13)c1nnnn1Cc1ccccc1)CC2 (stereo not drawn) | inconclusive: 29.1 µM [cytotoxic, single point] |  |

Shown with bars between the fields: entries from further up.
Compound | Potency | activity change, negative = cytotoxic
COc1ccc(CCNCc2cccn2C)cc1OC |  | inactive: 0.43%
COc1ccc(-c2nc(CN3C(=O)CN=C(c4ccccc4)c4ccccc43)c(C)o2)cc1 | active: 14.6 µM | 
CCOC(C[n+]1c(-c2ccccc2)cc(C)cc1-c1ccccc1)OCC | inconclusive: 18.4 µM [cytotoxic, single point] | 

Additional structures:

| Compound | Potency | activity change, negative = cytotoxic |
| --- | --- | --- |
| C[C@H]1CCC/C=C/[C@@H]2C[C@H](O)C[C@H]2[C@H](O)/C=C/C(=O)O1 | active: 0.0651 µM |  |
| C[C@H]1CCC/C=C/[C@@H]2C[C@H](O)C[C@H]2[C@@H](O)/C=C/C(=O)O1 | active: 0.184 µM |  |
| CCN1C(=O)C(=C2C=C(C)N(Cc3ccco3)C(C)=C2)C(=O)N(CC)C1=S |  | inactive: 14.1% |
| Cc1cc(OCC(=O)NCC(O)c2ccccc2)c2c3c(c(=O)oc2c1)CCC3 (stereo not drawn) | inconclusive: 29.1 µM [cytotoxic, single point] |  |
| CC(=NCc1ccc2c(c1)OCO2)c1c(O)[nH]c(=O)[nH]c1=O | inconclusive: 20.6 µM [cytotoxic, single point] |  |
| CCOC(=O)[C@]12Cc3cc4ccccc4cc3[C@H]1N(Cc1ccccc1)C(=O)c1cc(OC)ccc12 | active: 5.8 µM |  |
| OC(Cn1c2ccccc2c2ccccc21)C[n+]1cccc2ccccc21 (stereo not drawn) | inconclusive: 29.1 µM [cytotoxic, single point] |  |
| O=C(CCN1CC1)OCCOC(=O)CCN1CC1 | inconclusive: 11.6 µM [cytotoxic, partial curve, poor fit] |  |
| Cc1ccc(C2CC3CCC(C2)N3Cc2ccccc2F)cc1 (stereo not drawn) | inconclusive: 23.1 µM [cytotoxic, single point] |  |
| O=C(CNC(=O)OCc1ccccc1)NCC(=O)Nc1ccc(Br)cc1C(=O)c1ccccc1 |  | inactive: 24.8% |
| CCOC(=O)[C@]12Cc3cc(C)ccc3[C@H]1N(CCC(=O)OC)C(=O)c1cc(OC)ccc12 | active: 18.4 µM |  |
| CCC(C)n1c(O)c(/C=N/NC(=O)c2ccncc2)c(=O)[nH]c1=S (stereo not drawn) | inconclusive: 29.1 µM [rising, single point] |  |
| Cc1ccc2nc(-c3ccc(CN4CCC(n5c(=O)[nH]c6ccccc65)CC4)cc3)c(-c3ccccc3)nc2c1 | inconclusive: 25.9 µM [cytotoxic, single point] |  |
| COc1cc(/C=C2/C(=O)NC(=O)N(c3ccccc3)C2=O)ccc1O |  | inactive: 1.55% |
| CCC(=Nc1ccc(OC)cc1OC)c1c(O)[nH]c(=O)[nH]c1=O | inconclusive: 23.1 µM [cytotoxic, single point] |  |
| C=C1C(C)C2C(Cc3ccccc3)NC(=O)C23C(OC(C)=O)C=CC(C)(O)CC(C)CC=CC3C1O (stereo not drawn) | inconclusive: 0.461 µM [cytotoxic, full curve, poor fit] |  |
| CCOC(=O)[C@]12Cc3cc(OC)ccc3[C@H]1N(C)C(=O)c1ccccc12 | inconclusive: 29.1 µM [cytotoxic, single point] |  |
| CC(N)Cc1cn(Cc2ccccc2)c2ccccc12 (stereo not drawn) | active: 23.1 µM |  |
| COC(=O)C1=C(c2cc3ccccc3s2)C[C@@H]2CC[C@H]1N2C(=O)N1CCCCC1 | active: 25.9 µM |  |
| CC(C)(O)/C=C/C(=O)C(C)(O)C1C(O)CC2(C)C3CC=C4C(C=C(O)C(=O)C4(C)C)C3(C)C(=O)CC12C (stereo not drawn) | active: 0.184 µM |  |
| CNCCCc1ccccc1 | active: 23.1 µM |  |

| Compound | Potency | activity change, negative = cytotoxic |
| --- | --- | --- |
| CN1Cc2cccnc2N(C)Cc2cc(Cl)ccc21 | inconclusive: 29.1 µM [cytotoxic, single point] |  |
| CCCCCCC(=O)N/N=C/c1c(O)n(C(C)CC)c(=S)[nH]c1=O (stereo not drawn) | inconclusive: 29.1 µM [cytotoxic, partial curve, poor fit] |  |
| COC(=O)C1=C(c2ccc(F)cc2OCc2ccccc2)C[C@@H]2CC[C@H]1N2C(=O)NCc1ccc(OC)c(OC)c1 | inconclusive: 20.6 µM [cytotoxic, partial curve] |  |
| CCCCn1c(=O)c(C(=O)Nc2cccc(C)c2)c(O)c2ccccc21 | inconclusive: 18.4 µM [cytotoxic, single point] |  |
| COC(=O)C1=C(c2ccc(OCc3ccccc3)cc2)C[C@@H]2CC[C@H]1N2C(=O)NCc1ccccc1 | inconclusive: 18.4 µM [cytotoxic, partial curve, poor fit] |  |
| COC(=O)C1=C(c2cccc(OCc3ccccc3)c2)C[C@@H]2CC[C@H]1N2C(=O)NCc1ccc2[nH]ccc2c1 | inconclusive: 20.6 µM [cytotoxic, single point] |  |
| COc1cc(-n2c(=S)[nH]c3ccccc3c2=O)c(Cl)cc1Cl | inconclusive: 23.1 µM [cytotoxic, single point] |  |
| CCCCCCn1c(=O)c(C(=O)Nc2nc(CC(=O)OCC)cs2)c(O)c2ccccc21 | inconclusive: 18.4 µM [cytotoxic, single point] |  |
| COC(=O)C1=C(c2ccc(OCc3ccccc3)cc2)C[C@@H]2CC[C@H]1N2C(=O)NCc1cccc(F)c1 | inconclusive: 20.6 µM [cytotoxic, single point] |  |
| CC(=O)OC1CCC2(C)C(CCC3C2CC(=O)C2(C)C3CC(N3CC3)C2C(C)=O)C1 (stereo not drawn) | inconclusive: 32.6 µM [cytotoxic, single point] |  |
| COC(=O)C1=C(c2ccc(OC(F)(F)F)cc2)C[C@@H]2CC[C@H]1N2C(=O)NCCOc1ccccc1 | inconclusive: 20.6 µM [cytotoxic, single point] |  |
| CCCCOC(=O)c1ccc(NC(=O)c2c(O)[nH]c(=O)[nH]c2=O)cc1 |  | inactive: 12.5% |
| CCOC(=O)c1c(NC(=O)C(c2ccccc2)c2ccccc2)sc2c1C1CCN2CC1 | inconclusive: 20.6 µM [cytotoxic, single point] |  |
| Brc1ccc2[nH]cc(C=NN3CCCCCC3)c2c1 | inconclusive: 29.1 µM [cytotoxic, single point] |  |
| COC(=O)C1=C(c2ccccc2OCc2ccccc2)C[C@@H]2CC[C@H]1N2C(=O)NCCOc1ccccc1 | inconclusive: 29.1 µM [cytotoxic, single point] |  |
| Cc1ccccc1NC1=NCCCS1 |  | inactive: 4.7% |
| CCC(=NCc1ccc2c(c1)OCO2)c1c(O)n(C2CCCCC2)c(=O)[nH]c1=O | inconclusive: 29.1 µM [cytotoxic, single point] |  |
| CNC(=O)c1cccn(Cc2ccc(C(F)(F)F)cc2)c1=O | inconclusive: 14.6 µM [cytotoxic, partial curve, poor fit] |  |
| CC(C#N)CCC#N (stereo not drawn) |  | inactive: 0% |
| CN(CC1COc2ccccc2O1)c1nc(-c2cccnc2)nc2ccccc12 (stereo not drawn) | inconclusive: 29.1 µM [cytotoxic, single point] |  |
| Cc1ccc2c(c1)C1C[N+](C)(CC(=O)c3ccc(Cl)cc3Cl)CCC1N2C(=O)c1ccc(F)cc1 (stereo not drawn) | inconclusive: 18.4 µM [cytotoxic, partial curve, poor fit] |  |
